# Data as given in the supplement of paper PMC5407854, “Inhibitor of ppGalNAc-T3-mediated O-glycosylation blocks cancer cell invasiveness and lowers FGF23 levels” (eLife, 2017).
# Whole data set: some 1,700 compounds, median “T3 sensor activation Q score (MG/GFP ratio z-score vs DMSO controls)” near 0.25, cut for the highest 2% near 1.9. Some of the results follow.
# Tested on: ppGalNAc-T3 sensor
# Experiment: T3 sensor activation Q score (MG/GFP ratio z-score vs DMSO controls) (SD units); higher = more sensor activation (inhibition of ppGalNAc-T3 glycosylation)
# Conditions: HEK293 sensor cells; 10 µM; 6 h
# Protocol: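 Cells were treated with compound at 10 uM for 6 h, then MG/GFP ratio was read by flow cytometry (10,000 cells per well, duplicate wells). Q = (R - R_neg)/SD_neg relative to DMSO vehicle controls; the signal rises when the glycosyltransferase is inhibited.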
row,SMILES,T3 sensor activation Q score
1,CCOC(=O)N1CCc2cc(OC)c(OC)c3c2c1cc1cc(OC)c(OC)cc13,0.9
2,C=CCSC(CC)(CC)C(N)=O,0.8
3,CNC(=O)c1cc(Oc2ccc(NC(=O)Nc3ccc(Cl)c(C(F)(F)F)c3)c(F)c2)ccn1,0
4,O=C1OC(CN(Cc2ccccc2)Cc2ccccc2)CN1/N=C/c1ccc([N+](=O)[O-])o1 (stereo not given),-0.6
5,Cc1c(Cl)ccc2c(C(=O)O)cc(-c3ccccc3)nc12,0.5
6,Clc1ccc(-c2n[nH]c3c2Cc2ccccc2-3)cc1Cl,1.8
7,Nc1c(Cl)ncnc1NCCO,0.55
8,CCc1nc(N)nc(N)c1-c1ccc(N(C)Cc2ccccc2)c([N+](=O)[O-])c1,-1.85
9,CCOC(=O)c1c(C)oc(C)c(C(=O)OCC)c1=O,0.85
10,O=[N+]([O-])c1ccc(-c2ncc(-c3ccc(Br)cc3)o2)cc1,1.8
11,Cc1ccc2ccc(C#N)cc2c1O,-0.35
12,CCOC(=O)c1nn(C)c2[nH]c(=O)n(C)c(=O)c12,0.15
13,CC(C)(C#N)c1cc(Cn2cncn2)cc(C(C)(C)C#N)c1,0.4
14,O=C1NC(=O)C(Cc2ccccc2)(c2cccnc2)N1 (stereo not given),1.05
15,Nc1ccc(OC(=O)Nc2ccc(O)cc2)cc1,-0.45
16,CC1=CC2(C)NC(=O)C(C)C12 (stereo not given),-0.9
17,O=C1NC(=O)C2(CCc3ccccc32)N1 (stereo not given),0.25
18,CCOC(=O)c1ccc(NC(=O)Oc2cc(C)c(Cl)cc2C(C)C)cc1,1.4
19,O=C(O)CCN1c2ccccc2Sc2ccccc21,0.35
20,Cc1nc2c(O)cccc2cc1CO,0.4
21,OCc1ncc(-c2ccccc2)s1,-0.6
22,O=C1Cc2cccc(=O)c(O)c2C(=O)O1,0.65
23,O=C(Nc1ccc(Nc2ccccc2)cc1)Nc1ccccc1Cl,0.75
24,CC(=O)OC1C=CCC2C(=O)c3cccc(O)c3C(O)C12 (stereo not given),0.8

row,SMILES,T3 sensor activation Q score
1,Oc1ccc(NC(=S)Nc2ccccc2)cc1,1.35
2,CC[C@]1(O)C[C@H]2CN(CCc3c([nH]c4ccccc34)[C@@](C(=O)OC)(c3cc4c(cc3OC)N(C=O)[C@H]3[C@@](O)(C(=O)OC)[C@H](OC(C)=O)[C@]5(CC)C=CCN6CC[C@]43[C@@H]65)C2)C1,1.6
3,COc1cc(-c2ccc(Nc3ccccc3C(=O)O)c(OC)c2)ccc1Nc1ccccc1C(=O)O,0.85
4,COC(=O)c1cc(C)[nH]c2c(C)cc3nc4ccccc4c3c12,-0.15
5,O=C(O)c1cccc2c1C(=O)c1cccc3snc-2c13,-0.15
6,Cc1ccc([S+]([O-])c2ccc([N+](=O)[O-])c3nonc23)cc1 (stereo not given),-0.6
7,O=C(Nc1ccc(Nc2ccncc2)cc1)c1ccc(Nc2ccnc3ccc([N+](=O)[O-])cc23)cc1[N+](=O)[O-],-1.4
8,CCOC(=O)C(Cc1ccc(O)cc1)Nc1nc2ccccc2o1 (stereo not given),-0.1
9,S=c1cn[nH]c2ccccc12,-0.45
10,CC1(CN2CCCC2)CCC(NC(=O)C(c2ccccc2)c2ccccc2)C(C)(C)O1 (stereo not given),-1.45
11,C#CC(C)OCC1CNC(=S)O1 (stereo not given),-1.8
12,CC(OC(=O)Nc1cccc(Cl)c1)C(=O)O (stereo not given),-0.45
13,CCCCNc1cc(Cl)nc(N)n1,0.45
14,COc1cc(N=Nc2cccc(S(N)(=O)=O)c2)c2ccccc2c1N,-1.8
15,CN(C)CCC1c2ccc(Cl)cc2CCc2cccnc21 (stereo not given),0.25
16,CC(=O)Nc1ccc(Cc2nc3c([nH]2)c(=O)n(C)c(=O)n3C)cc1,-1.9
17,Clc1ccccc1-c1nc2ccccc2[nH]1,-0.55
18,Nc1nc2nn(-c3ccccc3)nc2c(=O)[nH]1,-0.55
19,CCOc1ccc(NC(=S)NC(=O)c2ccco2)cc1,-1.05
20,O=C(Nc1ccc(NC(=O)c2ccncc2)cc1)c1ccncc1,-0.9
21,CC1CC=C(O)C12OCC(C)(C)CO2 (stereo not given),-0.05
22,CN(N=O)C(=O)N[C@@H]1[C@@H](O)[C@H](O)[C@@H](CO)O[C@@H]1O,1.3
23,O=C(Nc1ccc(Cl)c(Cl)c1)c1ccc(Cl)c(Cl)c1,0.3
24,Cc1[nH]c(N=Nc2ccccc2)nc1N=Nc1ccccc1,-1.15

row,SMILES,T3 sensor activation Q score
1,CC1(C)O[C@H]2CC(=O)OC[C@]23[C@H]2CC[C@@]4(C)[C@H](c5ccoc5)OC(=O)[C@H]5O[C@]54[C@]2(C)C(=O)C[C@@H]13,0
2,COc1cc2c(cc1OC)C(/C=C/c1ccco1)=NCC2,-0.15
3,O=C(/C=C/c1cccnc1)c1ccccc1O,-0.65
4,C#Cc1cccc(Nc2ncnc3cc(OCCOC)c(OCCOC)cc23)c1,2.15
5,O=C1OCC/C1=C\c1ccc2c(c1)OCO2,-0.1
6,COCC(O)Cn1ccnc1[N+](=O)[O-] (stereo not given),0.85
7,COC(=O)C1=C(C(=O)OC)[C@@H]2CCC[C@H]1[C@H]1[C@@H]2N=NN1c1ccccc1,1.15
8,O=C(O)CCC1(c2ccccc2)NC(=O)NC1=O (stereo not given),0.65
9,CC(=O)OCCn1c([N+](=O)[O-])cnc1/C=[N+](\[O-])C1CCCCC1,-0.05
10,O=C(c1ccccc1)C1N=NCC1c1ccc(Cl)cc1 (stereo not given),0.8
11,CN1N=C(N)c2cn([C@@H]3O[C@H](COP(=O)(O)O)[C@@H](O)[C@H]3O)c3ncnc1c23,0.25
12,Cn1ncc2c(Nc3cccc(Cl)c3)nc(Nc3cccc(Cl)c3)nc21,0.75
13,CC1(C)CC(=O)C(CC(=O)c2ccccc2)=C(NN=C(N)N)C1,0.7
14,CO[C@H](C(=O)[C@@H](O)[C@@H](C)O)[C@@H]1Cc2cc3cc(O[C@H]4C[C@@H](O[C@H]5C[C@@H](O)[C@H](O)[C@@H](C)O5)[C@H](O)[C@@H](C)O4)c(C)c(O)c3c(O)c2C(=O)[C@H]1O[C@H]1C[C@@H](O[C@H]2C[C@@H](O[C@H]3C[C@](C)(O)[C@H](O)[C@@H](C)O3)[C@@H](O)[C@@H](C)O2)[C@H](O)[C@@H](C)O1,-1.35
15,COc1ccccc1N1C(=O)CC(Sc2ccccc2N)C1=O (stereo not given),0.05
16,CC1(C)CCCC2(C)C(OCCO)=CC(=O)C=C12 (stereo not given),0.85
17,Cc1csc(NC(=O)c2ccc(C(=O)Nc3nc(C)cs3)cc2)n1,1.4
18,O=C1NCN(CCO)CN1,1.3
19,O=C(O)/C=C\c1cc2c(cc1[N+](=O)[O-])OCO2,0.3
20,NC(=O)c1nc2c([nH]c1=O)CCCC2,-1.25
21,CC(=O)/C=C(\C)Nc1ccccc1O,-0.05
22,Cc1c(C(C)(C(=O)O)c2c(C)n(C)c3ccccc23)c2ccccc2n1C,0.8

# In the list so far, 15 contain a carbonyl joined to an NH by a bond outside any ring:
row,SMILES,T3 sensor activation Q score
2,C=CCSC(CC)(CC)C(N)=O,0.8
3,CNC(=O)c1cc(Oc2ccc(NC(=O)Nc3ccc(Cl)c(C(F)(F)F)c3)c(F)c2)ccn1,0
15,Nc1ccc(OC(=O)Nc2ccc(O)cc2)cc1,-0.45
18,CCOC(=O)c1ccc(NC(=O)Oc2cc(C)c(Cl)cc2C(C)C)cc1,1.4
23,O=C(Nc1ccc(Nc2ccccc2)cc1)Nc1ccccc1Cl,0.75
7,O=C(Nc1ccc(Nc2ccncc2)cc1)c1ccc(Nc2ccnc3ccc([N+](=O)[O-])cc23)cc1[N+](=O)[O-],-1.4
10,CC1(CN2CCCC2)CCC(NC(=O)C(c2ccccc2)c2ccccc2)C(C)(C)O1 (stereo not given),-1.45
12,CC(OC(=O)Nc1cccc(Cl)c1)C(=O)O (stereo not given),-0.45
16,CC(=O)Nc1ccc(Cc2nc3c([nH]2)c(=O)n(C)c(=O)n3C)cc1,-1.9
19,CCOc1ccc(NC(=S)NC(=O)c2ccco2)cc1,-1.05
20,O=C(Nc1ccc(NC(=O)c2ccncc2)cc1)c1ccncc1,-0.9
22,CN(N=O)C(=O)N[C@@H]1[C@@H](O)[C@H](O)[C@@H](CO)O[C@@H]1O,1.3
23,O=C(Nc1ccc(Cl)c(Cl)c1)c1ccc(Cl)c(Cl)c1,0.3
17,Cc1csc(NC(=O)c2ccc(C(=O)Nc3nc(C)cs3)cc2)n1,1.4
20,NC(=O)c1nc2c([nH]c1=O)CCCC2,-1.25
